Source: patent US9657062B2, “Ghrelin analogues” (Zealand Pharma A/S, priority 2012, dated 2017)
Not every detail of the peptide structures is certain; ends, links or a residue may be inferred. Where a SMILES comes first, the peptide text is derived from it. Bridges are numbered along the chain shown (N, C = ends). [ ]: non-standard residue; d: D form. The star is where a group is joined. ξ: configuration not given here. ξGly(decyl) = CCCCCCCCCCC(N)C(=O)O; Octyl = CCCCCCCC*

Test system: normal chow-fed C57BL/6J male mice
Experiment: Effect on food intake in normal mice (HM-2 automated monitoring)
Type: in vivo, mouse
Conditions: 300 nmol/kg s.c. once, light phase 0-6 h, modified protocol (food access re-opened 2 h after dosing)
Experimental: Normal chow-fed C57BL/6J male mice were used. The mice were kept in an automated food- and water-intake monitoring system (HM-2) which allows automated on-line measurements of accumulated food intake (FI) and other parameters. Food intake was monitored by the HM-2 system up to 24 h after dosing. The mice were kept 6 per cage, and each dosing group consisted of 6 animals.
In the initial experimental set-up with ghrelin as test compound, animals were allowed free access to food directly after treatment, and the resulting data for food intake are shown in FIG. 1A herein (vide infra).
In order to further investigate the “duration of action” of ghrelin and the other test compounds a new protocol was defined. In the modified protocol the gate to the food chambers was closed prior to dosing with vehicle or test compound and was re-opened 2 hours thereafter. The resulting data for food intake following dosing with ghrelin or vehicle are summarized in FIG. 1B (vide infra), while the corresponding data for food intake following dosing with each of the of the other four test compounds. (Compound 16, 22, 23 or 43 of the invention) or with vehicle are summarized in FIG. 2A (data for monitoring up to 6 hours after dosing) and FIG. 2B (data for monitoring up to 24 hours after dosing).

SMILES | Accumulated FI at 6h [g]
CCCCCCCCCCC(NC(=O)[C@H](CO)NC(=O)[C@@H]1CCCN1)C(=O)N[C@@H](Cc1ccccc1)C(=O)N[C@@H](CC(C)C)C(=O)N[C@@H](CO)C(=O)N1CCC[C@H]1C(=O)N[C@@H](CCC(=O)O)C(=O)N[C@@H](Cc1c[nH]cn1)C(=O)N[C@@H](CCC(N)=O)C(=O)N[C@@H](CCCNC(=N)N)C(=O)N[C@H](C(=O)N[C@@H](CCC(N)=O)C(=O)N[C@@H](CCC(N)=O)C(=O)N[C@@H](CCCNC(=N)N)C(=O)N[C@@H](CCCCN)C(=O)N[C@@H](CCC(=O)O)C(=O)N[C@@H](CO)C(=O)N[C@@H](CCCCN)C(=O)N[C@@H](CCCCN)C(=O)N1CCC[C@H]1C(=O)N1CCC[C@H]1C(=O)N[C@@H](C)C(N)=O)C(C)C (some centres unmarked) [Compound 29] (H-PS[ξGly(decyl)]FLSPEHQRVQQRKESKKPPA-NH2) | 1.36 ± 0.2
CCCCCCCCOC[C@H](NC(=O)[C@H](CO)NC(=O)[C@@H]1CCCN1)C(=O)N[C@@H](Cc1ccccc1)C(=O)N[C@@H](CC(C)C)C(=O)N[C@@H](CO)C(=O)N1CCC[C@H]1C(=O)N[C@@H](CCC(=O)O)C(=O)N[C@@H](Cc1c[nH]cn1)C(=O)N[C@H]1CCC(=O)NCCCC[C@@H](C(=O)N[C@@H](CCCNC(=N)N)C(=O)N[C@@H](CCCCN)C(=O)N[C@@H](CCC(=O)O)C(=O)N[C@@H](CO)C(=O)N[C@@H](CCCCN)C(=O)N[C@@H](CCCCN)C(=O)N2CCC[C@H]2C(=O)N2CCC[C@H]2C(=O)N[C@@H](C)C(=O)N[C@@H](CCCCN)C(=O)N[C@@H](CC(C)C)C(=O)N[C@@H](CCC(N)=O)C(=O)N2CCC[C@H]2C(=O)N[C@@H](CCCNC(=N)N)C(N)=O)NC(=O)[C@H](CCC(N)=O)NC(=O)[C@H](C(C)C)NC(=O)[C@H](CCCNC(=N)N)NC1=O [Compound 34, H-PS-S(O-octyl)-FLSPEHEURVQKORKESKKPPAKLQPR-NH2] (H-PSS(Octyl)FLSPEHERVQKRKESKKPPAKLQPR-NH2; lactam 10-14) | 0.53 ± 0.08
